Laboratory results from patent US20160274087A1, “SCREENING ASSAY FOR AGENTS THAT INFLUENCE BETA CELL NUMBER AND/OR PHENOTYPE” (VRIJE UNIVERSITEIT BRUSSEL, priority 2013, published 2016).
For at least one compound, name, drawing or mass did not settle the structure.

Test system: rat beta cells
Experiment: Number of living beta cells in culture (Hoechst 33342/propidium iodide whole-well imaging counts; expansion assay)
Type: cell-based
Details: 6MP 1 μM, DEX 0.01 μM, CPA 0.5 μM
Description: Beta cells were FACS-purified from islet-cell enriched suspensions (Pipeleers et al., 1985) prepared from neonatal (2-3 days-old) and adolescent or adult (8 or 40-week-old, male) Wistar rats (Janvier Bioservices, France); their purity was, respectively 70-75% and over 90%. Sorted cells were counted in a hemocytometer, seeded (day 0) and cultured for up to 15 days in serum-free Ham's-F10 medium at 5, 10 or 20 mmol/l glucose, supplemented with 2 mmol/l L-glutamine, 50 μM 3-isobutyl-1-methylxanthine, 0.5% Albumax-I, penicillin (100 U/ml) and streptomycin (0.1 mg/ml). The 10 mmol/l glucose condition is known to maintain beta cell survival over 9-days (Ling et al., 1994; Ling and Pipeleers, 1994). Medium and cells were retrieved after selected culture periods and assayed for insulin content; data were expressed as a function of the number of living beta cells that was determined in parallel wells.
On day 1, 9 and 15 of culture, total numbers of living beta cells per well were determined by semi-automatic cell count, after Hoechst 33342 (Ho) and propidium iodide (PI) staining. Numbers of living beta cells were obtained by subtracting the PI-positive cell numbers from the Ho-positive cell numbers, and correcting for the percent insulin-negative cells, as determined following insulin-immunofluorescence staining. They were expressed as percent of the numbers on day 1. […]

C[C@@H]1C[C@H]2[C@@H]3CCC4=CC(=O)C=C[C@]4(C)[C@@]3(F)[C@@H](O)C[C@]2(C)[C@@]1(O)C(=O)CO [DEX, dexamethasone]
change of beta cell numbers between day 1 and 15: nearly double
